PubChem BioAssay AID1224826 | NIAID – 2016

Screen: 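Genes that change LPS-induced Tnf promoter activity in mouse macrophages when knocked down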 (primary screen)
Cells: RAW264.7 G9 macrophages from mouse bearing reporters for p65 (GFP) and the Tnf promoter (mCherry)
Knock-down reagent: siRNA pool against mouse genes, 100 nM
Duration: 16 h of LPS stimulation, after 2 days of siRNA transfection
Conditions: bacterial lipopolysaccharide (Salmonella minnesota R595), 10 ng/ml
Measured: 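Imaged Tnf reporter mCherry in nuclei, minus background, normalised per plate to the median and expressed as robust z-scores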
Reading the numbers: Tnf reporter robust z-score: higher = stronger Tnf promoter reporter signal after LPS; Tnf reporter intensity: higher = stronger Tnf promoter reporter signal
Rule for the call: 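Called active when robust z-score is at most -1.3, matching the median of the Tlr4 knock-down control, or over 3; control wells and wells with under 50 cells never active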
Meaning of the calls: active = Tnf reporter clearly lowered or raised; inactive = no clear change in Tnf reporter
Shown is an unselected part of about 17,000 deposited reagents. About 1,110 of all reagents (6.6%) count as active. 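Active means lowered or raised reporter signal; replicate intensities are raw and not normalised per plate.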 Reagents against one gene are numbered here.

target | reagent no. | Tnf reporter robust z-score | fewer than 50 cells in well | Tnf reporter intensity, replicate 1 | Tnf reporter intensity, replicate 2 | Outcome
Comtd1 | 1 | -0.35 | enough cells in well | 168 | 151 | inactive
Gtf2h5 | 1 | 0.32 | enough cells in well | 194 | 190 | inactive
Met | 1 | 2.63 | enough cells in well | 328 | 342 | inactive
Abcg3 | 1 | -0.84 | enough cells in well | 149 | 132 | inactive
Il33 | 1 | 2.46 | enough cells in well | 343 | 331 | inactive
Gng5 | 1 | 0.59 | enough cells in well | 300 | 193 | inactive
Ttbk2 | 1 | -1.84 | enough cells in well | 71.3 | 56.2 | active
Arc | 1 | 0.46 | enough cells in well | 183 | 204 | inactive
Ccl6 | 1 | -1.69 | enough cells in well | 86.5 | 77.6 | active
Optc | 1 | 1.23 | enough cells in well | 195 | 201 | inactive
Thbs4 | 1 | 0.75 | enough cells in well | 267 | 184 | inactive
Fgg | 1 | 0.51 | enough cells in well | 287 | 289 | inactive
Serpina11 | 1 | – | fewer than 50 cells per well; well left out of calls | 58.7 | 48.2 | inactive
Acot11 | 1 | 0.34 | enough cells in well | 226 | 171 | inactive
Gabpb1 | 1 | -1 | enough cells in well | 177 | 149 | inactive
Smc4 | 1 | 1.51 | enough cells in well | 432 | 316 | inactive
Nrtn | 1 | -0.55 | enough cells in well | 230 | 121 | inactive
Pde1b | 1 | -0.46 | enough cells in well | 197 | 159 | inactive
Kif6 | 1 | 0.21 | enough cells in well | 197 | 147 | inactive
Hyal5 | 1 | -0.48 | enough cells in well | 133 | 132 | inactive
1700128F08Rik | 1 | -1.36 | enough cells in well | 118 | 44.2 | active
Ppp1r16b | 1 | 0.27 | enough cells in well | 316 | 168 | inactive
Ryk | 1 | -0.91 | enough cells in well | 145 | 104 | inactive
Man1c1 | 1 | -0.6 | enough cells in well | 184 | 90 | inactive
Sh3bgr | 1 | – | fewer than 50 cells per well; well left out of calls | 49.7 | 51.5 | inactive
Mbd6 | 1 | -0.07 | enough cells in well | 201 | 151 | inactive
Spry4 | 1 | 2.81 | enough cells in well | 206 | 107 | inactive
Tbcb | 1 | -1.41 | enough cells in well | 94.1 | 81.9 | active
Decr2 | 1 | -0.4 | enough cells in well | 200 | 179 | inactive
Smg8 | 1 | 0.7 | enough cells in well | 263 | 112 | inactive
Rtn4ip1 | 1 | -1.32 | enough cells in well | 71.8 | 70.4 | active
Sec24d | 1 | 0.83 | enough cells in well | 139 | 119 | inactive
2810408A11Rik | 1 | -0.21 | enough cells in well | 161 | 68.5 | inactive
Rbpjl | 1 | -1.1 | enough cells in well | 186 | 135 | inactive
Mrpl22 | 1 | 2.4 | enough cells in well | 386 | 48.3 | inactive
1810009A15Rik | 1 | -1.48 | enough cells in well | 114 | 38.8 | active
Cela1 | 1 | – | fewer than 50 cells per well; well left out of calls | 141 | 15.7 | inactive
Ptgr2 | 1 | – | fewer than 50 cells per well; well left out of calls | 207 | 102 | inactive
Uchl3 | 1 | -1.68 | enough cells in well | 100 | 98 | active
Il12a | 1 | -0.65 | enough cells in well | 207 | 128 | inactive
Cts7 | 1 | -0.24 | enough cells in well | 114 | 221 | inactive
Ranbp2 | 1 | -0.03 | enough cells in well | 330 | 187 | inactive
Ptpn23 | 1 | 0.01 | enough cells in well | 263 | 179 | inactive
Bst1 | 1 | -0.46 | enough cells in well | 1.24 | 137 | inactive
Fbxo25 | 1 | -0.01 | enough cells in well | 237 | 220 | inactive
Klkb1 | 1 | -1.08 | enough cells in well | 156 | 92.8 | inactive
Krt75 | 1 | 0.03 | enough cells in well | 207 | 177 | inactive
Itga4 | 1 | -0.84 | enough cells in well | 216 | 76.4 | inactive
Eif2b5 | 1 | -0.45 | enough cells in well | 183 | 208 | inactive
Klrb1b | 1 | -0.85 | enough cells in well | 141 | 91.2 | inactive
Klrb1b | 2 | -1.03 | enough cells in well | 123 | 87.4 | inactive
Mrgprx3-ps | 1 | -0.97 | enough cells in well | 132 | 221 | inactive
Tmeff2 | 1 | 0.98 | enough cells in well | 174 | 109 | inactive
Slc9a1 | 1 | – | fewer than 50 cells per well; well left out of calls | 64.8 | 63.3 | inactive
Smchd1 | 1 | – | fewer than 50 cells per well; well left out of calls | 146 | 37.7 | inactive
Drp2 | 1 | 0.58 | enough cells in well | 282 | 242 | inactive
Cenpn | 1 | 0.91 | enough cells in well | 219 | 192 | inactive
Abtb2 | 1 | 0.75 | enough cells in well | 156 | 199 | inactive

Only “Tnf reporter intensity, replicate 2”, for 5 of the entries above:
Hyal5	132
1700128F08Rik	44.2
Ppp1r16b	168
Ryk	104
Man1c1	90
